Values of other authors as cited in patent publication US20160089339A1, “CAPSULE FORMULATION COMPRISING MONTELUKAST AND LEVOCETIRIZINE” (HANMI PHARM. CO., LTD., priority 2011, published 2016).
For at least one compound, name, drawing or mass did not settle the structure.

Conditions: in 0.1 M hydrochloric acid solution, exposed to sodium

In the case of `CC(C)(O)c1ccccc1CC[C@@H](SCC1(CC(=O)O)CC1)c1cccc(/C=C/c2ccc3ccc(Cl)cc3n2)c1` [motelukast, Montelukast], the “Increase in amount of montelukast cis-isomer” value is listed as 14.6%.
